Measured data: PubChem BioAssay AID602196 (INSERM, 2012)

Aim: 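Genes whose knock-down alters cisplatin killing of lung cancer cells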
System: human A549 lung cancer cells
Reagent: siRNA pair against human genes
Duration: 48 h transfection before cisplatin; time from cisplatin to read-out not stated
Conditions: cisplatin at a dose killing half of control-siRNA cells; exact dose and duration not given
Detection: 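Shift in cisplatin death relative to control siRNA, from -50 (all cells die) to +50 (no cells die); siRNAs harmful on their own scored 0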
Direction: two-siRNA summed score (-2 to +2): higher = both siRNAs protect from cisplatin killing; -2 means both sensitise; mean protection from cisplatin (shift in death) and protection from cisplatin (shift in death), siRNA C: higher = protection from cisplatin killing
Rule for the call: 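Each siRNA scores 0 if harmful alone by LDH or WST-1, otherwise +1 if it reduces and -1 if it increases cisplatin killing; a gene is active when both siRNAs agree (sum +2 or -2)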
Meaning of the calls: active = both siRNAs shift cisplatin killing the same way; inactive = no consistent shift, or siRNA harmful alone
The deposit covers about 23,000 reagents; shown is a part drawn at random. In the full data, 455 (2%) were called active. 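Active includes both protection and sensitisation; some change values fall well beyond the stated -50 to +50 range.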 Unmarked entries are inactive. Not all columns of the deposit are shown. Not stated in the record: the amount of reagent.

| target | two-siRNA summed score (-2 to +2) | mean protection from cisplatin (shift in death) (%) | protection from cisplatin (shift in death), siRNA C (%) |
| --- | --- | --- | --- |
| LINC01343 (long independently transcribed non-coding RNA 1343) | 0 | -3 | -13.5 |
| RAD18 (RAD18 E3 ubiquitin protein ligase) | -1 | -18.6 | -22.1 |
| LOC442204 | 1 | 12.3 | 17.8 |
| AKR7A3 (aldo-keto reductase family 7 member A3) | -1 | -17.6 | -31.5 |
| XPOT (exportin for tRNA) | 0 | 13.4 | 14.6 |
| MAP3K1 (mitogen-activated protein kinase kinase kinase 1) | 0 | 1.8 | 3.7 |
| ACAP1 (ArfGAP with coiled-coil, ankyrin repeat and PH domains 1) | 0 | 3.1 | 2.7 |
| METTL14 | 0 | 2 | 10.4 |
| GFRAL (GDNF family receptor alpha like) | -1 | -6.8 | 5.5 |
| ATP6V1E2 (ATPase H+ transporting V1 subunit E2) | 0 | 3.5 | 3.2 |
| NKD2 (NKD inhibitor of Wnt signaling pathway 2) | 0 | 16.1 | 4.4 |
| RNASET2 (ribonuclease T2) | 0 | 2 | 5.3 |
| SPN (sialophorin) | 0 | -4.3 | -21.6 |
| LOC388235 | 0 | -7.5 | -22.9 |
| LOC401470 | 0 | 27 | 29 |
| PKD1L1-AS1 (PKD1L1 antisense RNA 1) | 0 | -4.3 | -5.4 |
| CSTPP1 | 0 | 6.3 | 8.2 |
| GC (GC vitamin D binding protein) | 0 | 2.5 | 8.1 |
| TUBB2A (tubulin beta 2A class IIa) | -1 | -10.9 | 0.1 |
| LOC441119 | 1 | 7.5 | 15.6 |
| LOC441109 | 0 | 10.3 | 6.3 |
| GAS6 (growth arrest specific 6) | 0 | 8 | 2.9 |
| CALHM1 (calcium homeostasis modulator 1) | 0 | 4.7 | 16.4 |
| CDIP1 (cell death inducing p53 target 1) | 1 | 5.9 | 5.7 |
| LOC387869 | 0 | 4.4 | 2.6 |
| APOBR (apolipoprotein B receptor) | -1 | -6 | -20.6 |
| UXS1 (UDP-glucuronate decarboxylase 1) | 0 | 0.3 | 5.6 |
| ZNF440 (zinc finger protein 440) | 0 | 10.8 | 15.1 |
| BTNL9 (butyrophilin like 9) | 0 | 8.4 | 7.3 |
| AFG3L1P (AFG3 like matrix AAA peptidase subunit 1, pseudogene) | 0 | 5.7 | 5.4 |
| LOC139735 | 0 | 3.1 | 6.9 |
| SH3BP1 (SH3 domain binding protein 1) | 0 | -1.9 | -11.8 |

Targets listed so far whose gene name begins with M or m (2):
| target | two-siRNA summed score (-2 to +2) | mean protection from cisplatin (shift in death) (%) | protection from cisplatin (shift in death), siRNA C (%) |
| --- | --- | --- | --- |
| MAP3K1 (mitogen-activated protein kinase kinase kinase 1) | 0 | 1.8 | 3.7 |
| METTL14 | 0 | 2 | 10.4 |

The listing continues:
| target | two-siRNA summed score (-2 to +2) | mean protection from cisplatin (shift in death) (%) | protection from cisplatin (shift in death), siRNA C (%) |
| --- | --- | --- | --- |
| LOC339237 | 0 | 8.8 | -6.3 |
| MYH10 (myosin heavy chain 10) | 0 | 5.7 | 4.4 |
| CYP4A22 (cytochrome P450 family 4 subfamily A member 22) | 0 | 25.4 | 23.4 |
| C11orf68 (chromosome 11 open reading frame 68) | 0 | -2.8 | -1.3 |
| BACE2 (beta-secretase 2) | -1 | -7.7 | -16.1 |
| GSTM3 (glutathione S-transferase mu 3) | 1 | 1.6 | -7.8 |
| LOC440449 | 0 | 2.2 | -4.3 |
| SUCLA2 (succinate-CoA ligase ADP-forming subunit beta) | 0 | 7.1 | -2.5 |
| MFAP2 (microfibril associated protein 2) | -1 | -1.3 | -12.9 |
| ZNF80 (zinc finger protein 80) | 2 (active) | 17.5 | 22.6 |
| CCNG1 (cyclin G1) | 0 | -20.4 | -28.2 |
| RBBP4 (RB binding protein 4, chromatin remodeling factor) | 0 | 10.7 | 13.2 |
| CNN2P13 (calponin 2 pseudogene 13) | 0 | 0.6 | -4.5 |
| CALU (calumenin) | -1 | -9.4 | -5.8 |
| RFTN1 (raftlin, lipid raft linker 1) | 0 | 11.4 | 10.3 |
| CCNA2 (cyclin A2) | 0 | 3.4 | -2 |
| GPRIN3 (GPRIN family member 3) | 0 | -1.8 | 2.6 |
| LOC389395 | 0 | 7.1 | 8.8 |
| RMDN2 (regulator of microtubule dynamics 2) | 0 | -2.1 | -12.4 |
| TMT1B (thiol methyltransferase 1B) | -1 | -5.6 | 2.1 |
| IER5 (immediate early response 5) | 0 | 11.7 | 9 |
| OSBPL3 (oxysterol binding protein like 3) | 1 | 11.9 | 5.5 |
| USP21 (ubiquitin specific peptidase 21) | 0 | -3.3 | -18.1 |
| LOC341392 | 0 | 9.4 | 14.6 |
| RPE65 (retinoid isomerohydrolase RPE65) | -2 (active) | -17.4 | -21.9 |
